Measurements published in PubChem BioAssay AID504847 (National Center for Advancing Translational Sciences (NCATS), 2011).
Where “and” joins values, the source holds several entries; their conditions need not be identical. Identical values can stand only once. The whole screen tested about 400,000 compounds, of which about 3,700 (0.93%) were called active. This list was built around the results that the source calls inconclusive (neither active nor inactive); the mix of calls is not that of the screen. Calls come from the whole dose curve; as a rule, active = well fitted inhibition curve with a large enough effect; inconclusive = small, poorly fitted or top-dose-only effect, or another doubt; inactive = no such curve, though single readings can be large or run the other way. Potencies beside an inconclusive call are fits to weak or partial responses and may not hold up. Some compounds were tested as several samples or in several runs, with calls that do not always agree.

By UniProt entry, the sequences of proteins in these tests, tags left out. Where a name states a change or a piece, a line headed by the entry shows the natural chain unless it says otherwise.
UniProt P11473: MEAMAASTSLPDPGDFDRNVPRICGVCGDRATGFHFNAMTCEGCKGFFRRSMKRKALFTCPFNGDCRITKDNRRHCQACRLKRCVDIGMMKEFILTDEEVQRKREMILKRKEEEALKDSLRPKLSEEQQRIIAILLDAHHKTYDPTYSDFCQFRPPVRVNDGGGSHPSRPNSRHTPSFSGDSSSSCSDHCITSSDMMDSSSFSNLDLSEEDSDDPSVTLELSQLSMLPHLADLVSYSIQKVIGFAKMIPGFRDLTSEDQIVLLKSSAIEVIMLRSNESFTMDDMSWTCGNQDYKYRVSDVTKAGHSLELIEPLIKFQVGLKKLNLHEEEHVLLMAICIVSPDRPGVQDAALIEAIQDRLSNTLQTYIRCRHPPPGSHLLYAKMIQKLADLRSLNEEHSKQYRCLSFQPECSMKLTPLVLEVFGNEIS

What follows are molecules tested against Vitamin D3 receptor (Homo sapiens) (UniProt P11473) (assay: Inhibitors of the vitamin D receptor (VDR): qHTS). Conditions: VDR-SRC2-3 peptide fluorescence polarization, 2 h; max response, negative = inhibition: stronger effect = lower value.
How it was run: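 Fluorescence polarization assay measuring small-molecule disruption of VDR binding to the coregulator peptide SRC2-3. Compounds were pin-transferred (23 nl) into the reagent mix and incubated 2 h at room temperature before reading.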
% is set by controls: 0 for no effect and ±100 for the full control effect; potency is the fitted concentration of half-maximal effect.

Potency, inconclusive:
O=C(O)c1cccc(N/N=C(\N=Nc2ccccc2)c2ccccc2)c1 79.4 µM [inhibitor, partial curve, poor fit]
COC(=O)c1cc(=O)n(-c2ccccc2)c(=Nc2ccccc2)s1 56.2 µM [inhibitor, partial curve, poor fit]
Cc1ccc(S(=O)(=O)CNC(=S)c2cccc(Cl)c2)cc1 79.4 µM [inhibitor, single point]
COc1ccccc1NC(=O)CCC(=O)Nc1cc(OC)c(NC(=O)c2cccs2)cc1OC 89.1 µM [inhibitor, partial curve, poor fit]
CCCOC(=O)c1c(NC(=O)C(C)Sc2nc(-c3ccccc3)cc(C(F)(F)F)n2)sc(C(=O)N(C)C)c1C (stereo unspecified) 56.2 µM [inhibitor, partial curve, poor fit]
Cc1ccc(-c2nn(-c3ccccc3)cc2/C=C2\SC(=S)N(CCCCCC(=O)O)C2=O)o1 44.7 µM [inhibitor, partial curve, poor fit]
Cc1cc(C)n(CC(C)C(=O)O)n1 (stereo unspecified) 89.1 µM [inhibitor, partial curve, poor fit]
CC1(C)CC(=O)C2=C(C1)OC1=C(C(=O)CC(C)(C)C1)C2c1cc([N+](=O)[O-])cc([N+](=O)[O-])c1O 20 µM [inhibitor, single point]
COc1ccc(C(C2C(=O)CC(C)(C)CC2=O)C2C(=O)CC(C)(C)CC2=O)cc1CO 56.2 µM [inhibitor, partial curve, poor fit]
O=C(C1CCCN1S(=O)(=O)c1cccc2cccnc12)N1CCn2c1nc1ccccc12 (stereo unspecified) 89.1 µM [inhibitor, partial curve, poor fit]
COc1ccc(OC)c(NC(=O)COC(=O)CCC2CCCC2)c1 50.1 µM [inhibitor, partial curve, poor fit]
CCCC(=O)Nc1ccc(C=C(C(C)=O)C(C)=O)cc1 50.1 µM [inhibitor, partial curve, poor fit]
Cc1ncc(CO)c(/C=N/Nc2ccc(C(F)(F)F)cn2)c1O 89.1 µM [inhibitor, single point]
CN(C)Cc1ccccc1C(O)(c1ccccc1)c1ccccc1 44.7 µM [inhibitor, partial curve, poor fit]
CCn1c(-c2cc(-c3ccccc3)sc2N)n[nH]c1=S 31.6 µM [inhibitor, partial curve, poor fit]
Cc1cccc(C)c1NC(=O)CN(C)C(=O)c1cc(S(=O)(=O)N2CCOCC2)ccc1N1CCCC1 89.1 µM [inhibitor, single point]
COc1ccccc1CNC(=O)CCCC(=O)n1ncc2cc(C)ccc21 0.631 µM [inhibitor, full curve, poor fit]
C/C=C1\COC(C(=O)NC)(C(F)(F)F)C=C1C=C1CCCCC1 (stereo unspecified) 89.1 µM [inhibitor, single point]
O=[N+]([O-])c1cc([N+](=O)[O-])c(Oc2c(F)ccc(F)c2F)cc1NN1CCCCC1 100 µM [inhibitor, single point]
Cc1csc(NC(=O)c2cccc(S(=O)(=O)N3CCN(C)CC3)c2)n1 50.1 µM [inhibitor, partial curve, poor fit]
COc1ccc(/C=C2/C(=O)ON=C2C)cc1Br 56.2 µM [inhibitor, partial curve, poor fit]
O=S1c2ccccc2Nc2ccccc21 100 µM [inhibitor, single point]
COc1cccc(C(=O)NC(=S)Nc2ccc([N+](=O)[O-])cc2C)c1 89.1 µM [inhibitor, partial curve, poor fit]
O=C(c1ccccc1)N1N=C(c2ccccc2)CC1c1ccccc1O (stereo unspecified) 25.1 µM [inhibitor, single point]
O=C1CC(=O)CC(c2ccccc2)C1 100 µM [inhibitor, single point]
O=C(C=Cc1cccs1)c1ccccc1 89.1 µM [inhibitor, single point]

Potency, active:
NC(=O)SCC(=O)Nc1ccccc1C(=O)O 79.4 µM
O=C(c1cccc(F)c1)N1CCC[C@@]2(CCN(c3ccccc3)C2)C1 44.7 µM
CC1=C(/C=C/C(C)=C\C=C\C(C)=C\C(=O)O)C(C)(C)CCC1 44.7 µM and 56.2 µM
Cc1nn(C)c(C(=O)Sc2cccc(Cl)c2)c1[N+](=O)[O-] 39.8 µM
CCN(CC)c1ccc(NC(=O)c2ccccn2)cc1S(=O)(=O)Nc1ccccc1OC 79.4 µM

Max response, negative = inhibition, inactive:
CCCOc1cccc(C2C(C(=O)c3ccc(C)o3)=C(O)C(=O)N2CCN2CCOCC2)c1 (stereo unspecified) -6.33%
CCN1CCN(CCNC(=O)c2ccc3nc(-c4cccc(C)c4)c(-c4cccc(C)c4)nc3c2)CC1 4.32%
O=C(NC(=S)Nc1ccc(N2CCOCC2)cc1)c1cncc(Br)c1 -17.2%
CC(=O)Nc1ccc(S(=O)(=O)Nc2ccc(N3CCOCC3)cc2)cc1 8.18%
CCOC(=O)c1c(NC(=O)COc2ccc(CC)cc2)sc2c1CCCC2 0.565%
O=[N+]([O-])c1ccccc1S(=O)(=O)NC1CCCCCCC1 12.4%
CN(C)CCCN(Cc1ccccc1)C(=S)Nc1cccc(C(F)(F)F)c1 -7.24%
COc1ccccc1N1CCN(C(=O)c2ccc(CS(=O)(=O)c3ccccc3OC)o2)CC1 9.53%
CCOc1ccc(CCNC(=O)CS(=O)Cc2nc(-c3ccc(OC)cc3)oc2C)cc1OCC (stereo unspecified) -7.49%
COCCCn1c(Cc2csc(Nc3ccccc3)n2)nnc1SCC(N)=O 7.81%
